# Results as given in the supplement of paper PMC12819154, “High-throughput peptide-centric local stability assay extends protein–ligand identification to membrane proteins, tissues and bacteria” (Nature Structural & Molecular Biology, 2025).
# By UniProt entry, the sequences of proteins in these tests, tags left out. Where a name states a change or a piece, a line headed by the entry shows the natural chain unless it says otherwise.
# UniProt Q9UJX6, whole entry: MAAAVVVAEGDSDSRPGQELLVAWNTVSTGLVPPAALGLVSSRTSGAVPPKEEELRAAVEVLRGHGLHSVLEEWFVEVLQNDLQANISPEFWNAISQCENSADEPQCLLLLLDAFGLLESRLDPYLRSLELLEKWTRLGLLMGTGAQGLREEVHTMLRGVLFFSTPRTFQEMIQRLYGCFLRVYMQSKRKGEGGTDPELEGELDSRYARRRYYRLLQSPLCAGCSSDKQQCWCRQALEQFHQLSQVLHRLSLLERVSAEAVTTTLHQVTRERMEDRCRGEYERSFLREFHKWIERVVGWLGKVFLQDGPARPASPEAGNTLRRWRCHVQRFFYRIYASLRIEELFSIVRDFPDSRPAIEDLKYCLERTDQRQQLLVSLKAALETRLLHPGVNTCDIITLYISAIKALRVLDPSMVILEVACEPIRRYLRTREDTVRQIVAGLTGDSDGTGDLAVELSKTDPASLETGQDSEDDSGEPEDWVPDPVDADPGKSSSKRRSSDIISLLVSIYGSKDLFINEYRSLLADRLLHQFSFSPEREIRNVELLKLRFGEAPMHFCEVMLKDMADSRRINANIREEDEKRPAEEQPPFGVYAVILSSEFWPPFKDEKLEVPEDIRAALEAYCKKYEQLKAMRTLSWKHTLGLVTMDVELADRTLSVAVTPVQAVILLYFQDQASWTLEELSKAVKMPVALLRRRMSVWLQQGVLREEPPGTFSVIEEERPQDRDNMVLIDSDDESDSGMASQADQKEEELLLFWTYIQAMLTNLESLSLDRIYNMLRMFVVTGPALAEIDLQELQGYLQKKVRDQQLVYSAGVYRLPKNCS
# UniProt Q9UHD2: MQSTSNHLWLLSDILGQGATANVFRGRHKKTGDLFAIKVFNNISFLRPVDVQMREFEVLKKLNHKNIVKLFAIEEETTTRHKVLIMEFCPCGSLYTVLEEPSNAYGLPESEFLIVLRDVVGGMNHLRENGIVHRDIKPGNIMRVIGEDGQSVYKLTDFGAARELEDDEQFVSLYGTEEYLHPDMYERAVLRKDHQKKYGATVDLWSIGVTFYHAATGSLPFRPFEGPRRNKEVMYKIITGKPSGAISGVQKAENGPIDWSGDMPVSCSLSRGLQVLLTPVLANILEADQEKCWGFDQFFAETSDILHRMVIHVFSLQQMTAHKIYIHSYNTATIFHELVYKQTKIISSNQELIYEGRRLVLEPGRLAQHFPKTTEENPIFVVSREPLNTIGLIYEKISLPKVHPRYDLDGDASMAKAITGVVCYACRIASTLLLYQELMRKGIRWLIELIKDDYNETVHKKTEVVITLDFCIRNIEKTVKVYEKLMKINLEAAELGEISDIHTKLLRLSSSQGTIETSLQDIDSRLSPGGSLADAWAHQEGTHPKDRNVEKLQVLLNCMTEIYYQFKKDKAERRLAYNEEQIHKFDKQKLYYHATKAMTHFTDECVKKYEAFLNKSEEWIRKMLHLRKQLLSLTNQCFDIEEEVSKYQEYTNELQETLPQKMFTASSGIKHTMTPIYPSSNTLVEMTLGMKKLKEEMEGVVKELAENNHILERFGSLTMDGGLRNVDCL
# UniProt Q9UMY1: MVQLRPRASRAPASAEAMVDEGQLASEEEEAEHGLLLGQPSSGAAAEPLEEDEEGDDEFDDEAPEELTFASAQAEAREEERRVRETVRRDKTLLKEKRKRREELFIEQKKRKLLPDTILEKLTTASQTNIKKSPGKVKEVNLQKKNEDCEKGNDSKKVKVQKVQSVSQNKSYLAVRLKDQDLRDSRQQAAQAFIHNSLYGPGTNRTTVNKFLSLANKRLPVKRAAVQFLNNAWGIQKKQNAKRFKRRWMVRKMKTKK
# UniProt Q9UJ83: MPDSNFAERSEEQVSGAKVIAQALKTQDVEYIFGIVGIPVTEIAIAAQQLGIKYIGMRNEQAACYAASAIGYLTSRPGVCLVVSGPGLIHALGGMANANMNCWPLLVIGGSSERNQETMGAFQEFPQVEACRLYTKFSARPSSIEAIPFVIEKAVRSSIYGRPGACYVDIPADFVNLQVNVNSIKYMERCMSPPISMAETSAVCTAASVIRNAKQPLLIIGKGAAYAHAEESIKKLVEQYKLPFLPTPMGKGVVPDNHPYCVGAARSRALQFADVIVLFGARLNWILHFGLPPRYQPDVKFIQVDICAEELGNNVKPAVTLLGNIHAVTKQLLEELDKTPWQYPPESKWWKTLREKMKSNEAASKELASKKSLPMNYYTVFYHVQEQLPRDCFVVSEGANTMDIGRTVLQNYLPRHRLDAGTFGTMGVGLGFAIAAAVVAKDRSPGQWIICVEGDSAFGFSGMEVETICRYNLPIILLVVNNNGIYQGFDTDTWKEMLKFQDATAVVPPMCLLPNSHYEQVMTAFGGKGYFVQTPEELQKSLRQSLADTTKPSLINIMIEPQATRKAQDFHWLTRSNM
# UniProt Q9UHD8: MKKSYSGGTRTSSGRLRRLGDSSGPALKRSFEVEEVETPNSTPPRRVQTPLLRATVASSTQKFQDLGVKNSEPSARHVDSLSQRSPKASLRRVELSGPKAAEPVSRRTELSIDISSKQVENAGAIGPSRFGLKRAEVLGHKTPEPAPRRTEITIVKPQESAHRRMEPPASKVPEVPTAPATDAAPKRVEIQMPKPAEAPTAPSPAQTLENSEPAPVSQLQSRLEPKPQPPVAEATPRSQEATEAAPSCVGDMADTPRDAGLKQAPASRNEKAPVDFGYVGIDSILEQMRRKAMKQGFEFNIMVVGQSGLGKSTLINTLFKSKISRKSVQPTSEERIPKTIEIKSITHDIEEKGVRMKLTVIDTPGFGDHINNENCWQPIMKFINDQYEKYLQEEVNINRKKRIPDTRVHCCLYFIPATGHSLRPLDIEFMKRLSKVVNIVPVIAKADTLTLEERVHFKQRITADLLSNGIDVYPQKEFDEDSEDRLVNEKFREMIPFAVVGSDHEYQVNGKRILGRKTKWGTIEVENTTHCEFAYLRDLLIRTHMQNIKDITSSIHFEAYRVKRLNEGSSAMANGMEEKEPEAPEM
# UniProt Q9UQM7, whole entry: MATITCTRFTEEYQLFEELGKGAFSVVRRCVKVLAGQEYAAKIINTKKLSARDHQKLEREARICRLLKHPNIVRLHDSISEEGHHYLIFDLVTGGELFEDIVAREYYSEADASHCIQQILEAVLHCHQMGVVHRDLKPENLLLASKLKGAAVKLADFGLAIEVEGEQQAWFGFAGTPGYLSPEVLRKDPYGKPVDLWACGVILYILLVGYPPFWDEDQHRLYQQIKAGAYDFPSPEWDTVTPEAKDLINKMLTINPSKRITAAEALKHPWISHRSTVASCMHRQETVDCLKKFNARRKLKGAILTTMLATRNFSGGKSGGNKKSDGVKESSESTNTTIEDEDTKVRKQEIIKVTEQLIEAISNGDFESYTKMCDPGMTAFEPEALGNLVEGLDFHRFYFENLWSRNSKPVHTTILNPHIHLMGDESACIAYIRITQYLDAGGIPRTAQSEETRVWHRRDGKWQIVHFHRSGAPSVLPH
# UniProt Q9UHK0: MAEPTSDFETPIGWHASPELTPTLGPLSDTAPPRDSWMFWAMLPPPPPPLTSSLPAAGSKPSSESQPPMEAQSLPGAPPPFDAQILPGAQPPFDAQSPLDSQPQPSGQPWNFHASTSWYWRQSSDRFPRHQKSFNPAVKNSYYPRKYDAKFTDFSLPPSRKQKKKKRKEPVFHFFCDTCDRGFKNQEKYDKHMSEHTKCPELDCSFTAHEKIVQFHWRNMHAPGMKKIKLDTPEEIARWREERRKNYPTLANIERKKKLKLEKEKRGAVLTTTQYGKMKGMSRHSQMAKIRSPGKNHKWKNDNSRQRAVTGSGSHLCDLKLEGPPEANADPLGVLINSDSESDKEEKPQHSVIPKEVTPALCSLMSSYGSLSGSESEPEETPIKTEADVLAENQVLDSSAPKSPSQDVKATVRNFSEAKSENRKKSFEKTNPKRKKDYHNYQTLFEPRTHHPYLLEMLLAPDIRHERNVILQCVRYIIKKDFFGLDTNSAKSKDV
# UniProt Q9UIV1, whole entry: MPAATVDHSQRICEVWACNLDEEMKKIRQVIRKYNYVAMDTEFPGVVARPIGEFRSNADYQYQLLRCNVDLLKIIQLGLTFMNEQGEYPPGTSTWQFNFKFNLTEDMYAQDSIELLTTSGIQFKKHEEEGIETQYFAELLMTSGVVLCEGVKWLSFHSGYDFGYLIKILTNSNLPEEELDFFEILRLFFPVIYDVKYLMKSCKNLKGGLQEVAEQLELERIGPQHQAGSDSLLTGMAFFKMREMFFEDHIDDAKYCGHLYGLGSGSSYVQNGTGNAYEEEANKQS
# UniProt Q9UK97: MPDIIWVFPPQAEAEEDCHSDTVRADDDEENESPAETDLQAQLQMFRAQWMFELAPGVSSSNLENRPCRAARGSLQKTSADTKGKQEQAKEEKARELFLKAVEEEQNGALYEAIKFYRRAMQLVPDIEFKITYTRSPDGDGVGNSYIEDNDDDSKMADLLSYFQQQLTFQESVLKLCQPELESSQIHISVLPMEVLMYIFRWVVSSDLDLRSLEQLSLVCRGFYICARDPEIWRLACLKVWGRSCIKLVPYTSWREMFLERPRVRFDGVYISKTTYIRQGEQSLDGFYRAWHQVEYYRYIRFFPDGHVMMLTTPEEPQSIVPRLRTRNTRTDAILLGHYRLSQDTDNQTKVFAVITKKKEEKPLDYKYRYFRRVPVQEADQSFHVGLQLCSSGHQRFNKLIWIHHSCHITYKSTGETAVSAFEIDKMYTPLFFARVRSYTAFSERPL
# Some of the results follow. Most values lie at the level of the controls, where differences are scatter.
# Compound: Cc1nc(Nc2ncc(C(=O)Nc3c(C)cccc3Cl)s2)cc(N2CCN(CCO)CC2)n1 [dasatinib]
# Assay: log2 fold change of tryptic peptide abundance, ligand vs vehicle (limited proteolysis) (log2 ratio); higher = more trypsin-susceptible (destabilized)
# Settings: ligand concentration: 5 uM; sample: K562 cleared lysate
row,Target,log2 fold change
1,"ANAPC2 (peptide sequence: DQQLVYSAGVYRLPK, peptide start residue: 805) (UniProt Q9UJX6)",0.309
2,"TBK1 (peptide sequence: AITGVVCYACR, peptide start residue: 417) (UniProt Q9UHD2)",0.308
3,"NOL7 (peptide sequence: KLLPDTILEK, peptide start residue: 112) (UniProt Q9UMY1)",-0.31
4,"HACL1 (peptide sequence: GAAYAHAEESIKK, peptide start residue: 223) (UniProt Q9UJ83)",0.252
5,"UniProt Q9UHD8 (peptide sequence: VVNIVPVIAK, peptide start residue: 436)",-0.204
6,"CAMK2A (peptide sequence: DHQKLER, peptide start residue: 54) (UniProt Q9UQM7)",-0.0771
7,"NUFIP1 (peptide sequence: FTDFSLPPSRK, peptide start residue: 151) (UniProt Q9UHK0)",-0.242
8,"CNOT7 (peptide sequence: EMFFEDHIDDAK, peptide start residue: 243) (UniProt Q9UIV1)",0.121
9,"FBXO9 (peptide sequence: RAMQLVPDIEFK, peptide start residue: 119) (UniProt Q9UK97)",0.304
